Laboratory results as given in the supplement of paper PMC10849652.
The other results are listed elsewhere or left out. Residues, ends and D or L forms follow the SMILES beside them. *: point of attachment. Cbz = O=C(OCc1ccccc1)*

Chains of the proteins cited; added tags and fusions are not shown. Lines headed by an entry give the natural chain unless they say otherwise; changes in a name come on top.
UniProt Q9Y692: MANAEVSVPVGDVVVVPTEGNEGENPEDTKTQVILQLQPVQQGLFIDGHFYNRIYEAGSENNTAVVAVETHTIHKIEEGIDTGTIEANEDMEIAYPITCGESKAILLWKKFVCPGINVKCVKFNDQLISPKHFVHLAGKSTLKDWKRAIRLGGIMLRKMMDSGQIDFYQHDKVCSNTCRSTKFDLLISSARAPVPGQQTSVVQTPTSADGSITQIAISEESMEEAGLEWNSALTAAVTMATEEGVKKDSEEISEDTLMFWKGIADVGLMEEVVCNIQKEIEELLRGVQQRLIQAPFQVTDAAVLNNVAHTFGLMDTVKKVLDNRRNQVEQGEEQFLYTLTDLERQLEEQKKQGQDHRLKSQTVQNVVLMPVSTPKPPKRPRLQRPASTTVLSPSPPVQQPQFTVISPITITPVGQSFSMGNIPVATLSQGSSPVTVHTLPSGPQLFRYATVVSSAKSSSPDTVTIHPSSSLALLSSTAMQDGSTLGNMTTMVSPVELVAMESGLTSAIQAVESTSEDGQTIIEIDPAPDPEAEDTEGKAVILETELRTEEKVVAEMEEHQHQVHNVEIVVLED
UniProt O94925: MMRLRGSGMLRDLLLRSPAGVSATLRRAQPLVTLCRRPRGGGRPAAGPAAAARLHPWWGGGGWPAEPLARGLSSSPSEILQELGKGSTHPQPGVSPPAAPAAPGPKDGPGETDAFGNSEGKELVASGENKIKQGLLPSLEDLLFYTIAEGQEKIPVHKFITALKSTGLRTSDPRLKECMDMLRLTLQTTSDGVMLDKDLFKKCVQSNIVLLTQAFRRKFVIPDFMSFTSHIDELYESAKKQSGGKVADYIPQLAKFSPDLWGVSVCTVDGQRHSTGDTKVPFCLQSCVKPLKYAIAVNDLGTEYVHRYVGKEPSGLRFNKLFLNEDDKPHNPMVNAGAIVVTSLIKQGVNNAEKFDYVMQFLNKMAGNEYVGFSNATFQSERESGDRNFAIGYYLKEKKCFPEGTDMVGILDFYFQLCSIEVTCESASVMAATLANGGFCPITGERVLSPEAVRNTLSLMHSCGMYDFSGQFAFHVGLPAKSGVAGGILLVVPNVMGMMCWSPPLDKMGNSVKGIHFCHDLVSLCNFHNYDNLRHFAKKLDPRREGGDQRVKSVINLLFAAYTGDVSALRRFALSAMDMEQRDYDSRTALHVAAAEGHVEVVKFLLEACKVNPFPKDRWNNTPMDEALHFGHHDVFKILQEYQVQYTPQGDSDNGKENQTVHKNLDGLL
UniProt Q03113, whole entry, looked up: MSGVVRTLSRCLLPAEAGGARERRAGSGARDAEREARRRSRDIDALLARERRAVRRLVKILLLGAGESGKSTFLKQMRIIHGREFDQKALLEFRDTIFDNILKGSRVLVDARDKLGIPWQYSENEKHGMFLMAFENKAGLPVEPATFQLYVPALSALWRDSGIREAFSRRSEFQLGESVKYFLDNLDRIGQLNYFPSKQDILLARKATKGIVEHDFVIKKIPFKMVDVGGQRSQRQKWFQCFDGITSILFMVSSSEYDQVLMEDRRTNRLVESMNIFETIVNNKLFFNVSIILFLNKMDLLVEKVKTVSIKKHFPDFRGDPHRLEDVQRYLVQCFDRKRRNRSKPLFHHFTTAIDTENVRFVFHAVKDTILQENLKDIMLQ
UniProt P36915, whole entry, looked up: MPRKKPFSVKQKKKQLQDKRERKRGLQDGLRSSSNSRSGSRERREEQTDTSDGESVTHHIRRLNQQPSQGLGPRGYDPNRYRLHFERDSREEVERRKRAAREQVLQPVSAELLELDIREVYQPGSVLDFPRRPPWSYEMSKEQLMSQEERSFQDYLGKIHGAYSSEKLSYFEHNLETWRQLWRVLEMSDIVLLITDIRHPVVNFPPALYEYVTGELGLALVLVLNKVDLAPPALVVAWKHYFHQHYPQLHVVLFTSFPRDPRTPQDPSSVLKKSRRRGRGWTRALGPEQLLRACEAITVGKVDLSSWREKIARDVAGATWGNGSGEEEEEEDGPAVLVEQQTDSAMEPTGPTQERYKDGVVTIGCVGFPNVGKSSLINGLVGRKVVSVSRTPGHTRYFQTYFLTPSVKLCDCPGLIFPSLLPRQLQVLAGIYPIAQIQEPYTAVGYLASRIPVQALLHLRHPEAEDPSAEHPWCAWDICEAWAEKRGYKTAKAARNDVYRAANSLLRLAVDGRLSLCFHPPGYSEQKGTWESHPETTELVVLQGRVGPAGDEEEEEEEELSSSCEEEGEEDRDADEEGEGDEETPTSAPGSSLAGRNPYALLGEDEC
UniProt A6NDN3: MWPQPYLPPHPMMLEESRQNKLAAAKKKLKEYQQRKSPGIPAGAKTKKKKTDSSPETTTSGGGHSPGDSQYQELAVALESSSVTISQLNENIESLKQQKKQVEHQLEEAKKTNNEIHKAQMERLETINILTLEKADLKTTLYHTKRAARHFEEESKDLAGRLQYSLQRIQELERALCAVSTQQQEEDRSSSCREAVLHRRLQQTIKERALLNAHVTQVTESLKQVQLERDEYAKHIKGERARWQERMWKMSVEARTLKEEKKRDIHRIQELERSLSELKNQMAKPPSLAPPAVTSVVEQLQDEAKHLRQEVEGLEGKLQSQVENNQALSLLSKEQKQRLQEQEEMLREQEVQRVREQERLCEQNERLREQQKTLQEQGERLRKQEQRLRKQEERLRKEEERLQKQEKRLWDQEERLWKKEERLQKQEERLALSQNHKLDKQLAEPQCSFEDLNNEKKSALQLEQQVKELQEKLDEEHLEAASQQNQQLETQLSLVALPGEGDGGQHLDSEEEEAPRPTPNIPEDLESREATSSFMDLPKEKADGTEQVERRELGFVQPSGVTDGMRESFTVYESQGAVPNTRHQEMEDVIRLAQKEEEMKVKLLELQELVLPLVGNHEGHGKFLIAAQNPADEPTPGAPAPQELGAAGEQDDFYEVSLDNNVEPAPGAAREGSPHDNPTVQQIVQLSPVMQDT
UniProt Q3T8J9: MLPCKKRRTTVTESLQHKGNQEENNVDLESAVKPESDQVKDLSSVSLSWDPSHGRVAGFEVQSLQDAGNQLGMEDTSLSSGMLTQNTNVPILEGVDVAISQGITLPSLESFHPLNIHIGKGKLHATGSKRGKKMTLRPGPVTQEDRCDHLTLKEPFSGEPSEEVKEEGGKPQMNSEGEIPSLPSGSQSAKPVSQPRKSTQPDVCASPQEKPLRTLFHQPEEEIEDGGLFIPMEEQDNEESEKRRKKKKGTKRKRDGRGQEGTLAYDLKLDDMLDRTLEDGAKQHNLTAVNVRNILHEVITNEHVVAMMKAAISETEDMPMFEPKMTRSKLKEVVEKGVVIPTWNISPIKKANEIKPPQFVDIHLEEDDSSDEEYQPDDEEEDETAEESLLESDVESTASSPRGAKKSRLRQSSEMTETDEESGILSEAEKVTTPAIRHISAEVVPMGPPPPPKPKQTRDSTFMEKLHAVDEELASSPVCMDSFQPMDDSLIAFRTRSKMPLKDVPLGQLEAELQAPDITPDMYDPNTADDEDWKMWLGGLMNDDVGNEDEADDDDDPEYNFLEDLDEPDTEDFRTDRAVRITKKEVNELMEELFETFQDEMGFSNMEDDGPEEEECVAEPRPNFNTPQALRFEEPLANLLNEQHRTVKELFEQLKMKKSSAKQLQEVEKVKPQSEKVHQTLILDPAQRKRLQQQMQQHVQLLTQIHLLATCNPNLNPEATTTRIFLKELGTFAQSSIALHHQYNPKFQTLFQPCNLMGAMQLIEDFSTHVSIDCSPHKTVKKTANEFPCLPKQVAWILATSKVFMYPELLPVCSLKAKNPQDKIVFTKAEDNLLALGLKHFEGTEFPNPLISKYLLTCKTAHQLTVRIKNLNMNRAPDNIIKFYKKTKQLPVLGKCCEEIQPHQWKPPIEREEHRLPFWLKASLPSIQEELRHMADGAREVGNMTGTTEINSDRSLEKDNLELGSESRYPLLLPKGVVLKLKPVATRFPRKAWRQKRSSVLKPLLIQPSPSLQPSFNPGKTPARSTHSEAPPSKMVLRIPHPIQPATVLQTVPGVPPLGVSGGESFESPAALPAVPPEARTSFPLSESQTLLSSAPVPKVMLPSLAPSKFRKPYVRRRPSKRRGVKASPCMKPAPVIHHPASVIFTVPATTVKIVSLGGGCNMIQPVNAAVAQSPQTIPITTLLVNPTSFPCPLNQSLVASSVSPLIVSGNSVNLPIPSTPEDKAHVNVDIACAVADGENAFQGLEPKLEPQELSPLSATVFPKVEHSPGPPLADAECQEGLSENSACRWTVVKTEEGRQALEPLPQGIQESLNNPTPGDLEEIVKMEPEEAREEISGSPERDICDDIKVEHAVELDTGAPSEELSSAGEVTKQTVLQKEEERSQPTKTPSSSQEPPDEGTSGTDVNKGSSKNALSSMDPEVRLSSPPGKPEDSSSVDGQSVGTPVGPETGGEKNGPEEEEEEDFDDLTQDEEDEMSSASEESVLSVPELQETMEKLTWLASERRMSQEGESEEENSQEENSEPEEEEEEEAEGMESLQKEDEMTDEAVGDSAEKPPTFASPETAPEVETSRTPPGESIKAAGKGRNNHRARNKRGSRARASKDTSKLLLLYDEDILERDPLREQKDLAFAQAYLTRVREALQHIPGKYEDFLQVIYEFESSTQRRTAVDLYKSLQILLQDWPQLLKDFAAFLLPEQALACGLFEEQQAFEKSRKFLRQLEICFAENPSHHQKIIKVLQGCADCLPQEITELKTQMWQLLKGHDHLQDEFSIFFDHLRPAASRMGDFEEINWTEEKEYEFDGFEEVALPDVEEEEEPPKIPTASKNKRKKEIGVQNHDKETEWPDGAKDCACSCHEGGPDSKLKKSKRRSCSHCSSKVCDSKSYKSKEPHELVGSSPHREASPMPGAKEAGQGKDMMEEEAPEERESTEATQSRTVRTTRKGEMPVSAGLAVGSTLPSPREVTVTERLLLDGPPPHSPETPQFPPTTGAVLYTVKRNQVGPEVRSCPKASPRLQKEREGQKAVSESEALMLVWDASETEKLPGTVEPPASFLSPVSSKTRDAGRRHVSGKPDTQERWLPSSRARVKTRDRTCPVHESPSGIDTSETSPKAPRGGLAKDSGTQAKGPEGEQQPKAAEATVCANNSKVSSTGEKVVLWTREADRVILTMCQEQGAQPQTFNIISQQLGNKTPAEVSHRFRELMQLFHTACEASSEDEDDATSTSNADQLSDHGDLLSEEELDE
UniProt P06280: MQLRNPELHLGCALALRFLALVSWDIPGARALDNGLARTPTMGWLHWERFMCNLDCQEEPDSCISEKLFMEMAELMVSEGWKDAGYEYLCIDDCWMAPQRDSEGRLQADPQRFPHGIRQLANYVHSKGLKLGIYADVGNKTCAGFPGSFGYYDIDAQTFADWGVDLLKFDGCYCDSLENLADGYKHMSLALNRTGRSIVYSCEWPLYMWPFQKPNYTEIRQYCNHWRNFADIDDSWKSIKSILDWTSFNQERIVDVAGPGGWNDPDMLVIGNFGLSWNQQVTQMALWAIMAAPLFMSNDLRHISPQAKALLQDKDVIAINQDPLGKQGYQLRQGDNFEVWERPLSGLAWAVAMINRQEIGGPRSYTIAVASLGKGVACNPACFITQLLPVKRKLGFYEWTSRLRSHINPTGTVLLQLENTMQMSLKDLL
UniProt I6L899: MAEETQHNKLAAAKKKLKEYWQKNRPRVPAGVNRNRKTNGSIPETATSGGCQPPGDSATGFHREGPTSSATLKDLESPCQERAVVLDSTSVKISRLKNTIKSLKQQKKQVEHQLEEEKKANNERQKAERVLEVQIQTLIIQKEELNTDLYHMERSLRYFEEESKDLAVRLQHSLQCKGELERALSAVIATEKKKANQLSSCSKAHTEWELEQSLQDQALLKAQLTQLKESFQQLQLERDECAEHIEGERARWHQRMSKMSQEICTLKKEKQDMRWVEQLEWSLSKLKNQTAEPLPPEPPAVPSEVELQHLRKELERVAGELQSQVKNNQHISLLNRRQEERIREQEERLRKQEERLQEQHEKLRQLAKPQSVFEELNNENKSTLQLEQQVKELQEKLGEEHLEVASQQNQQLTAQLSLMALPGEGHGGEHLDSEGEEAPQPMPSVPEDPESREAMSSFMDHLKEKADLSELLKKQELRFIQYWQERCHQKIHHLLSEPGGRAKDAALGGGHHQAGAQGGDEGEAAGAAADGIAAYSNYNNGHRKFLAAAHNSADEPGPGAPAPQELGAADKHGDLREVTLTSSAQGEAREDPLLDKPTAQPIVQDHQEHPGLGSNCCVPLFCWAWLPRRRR
UniProt Q2TAP0: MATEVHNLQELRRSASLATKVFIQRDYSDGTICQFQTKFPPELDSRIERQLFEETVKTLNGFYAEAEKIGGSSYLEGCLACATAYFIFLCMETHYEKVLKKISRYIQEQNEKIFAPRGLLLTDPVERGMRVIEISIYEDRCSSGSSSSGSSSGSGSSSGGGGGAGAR

What was measured:
Test in all cases: log2 fold change, soluble protein after heating vs DMSO (PISA); higher = thermal stabilisation; K562 cells, 10 uM, 30 min; active = over 0.2 and 3.5 SD of the protein, either way, in both replicates (recomputed)
[1] = compound: C1COCCN1CCN2C3=CC=CC=C3N=C2NC(=O)C4=CC(=CC=C4)[N+](=O)[O-] [IRAK-1-4 Inhibitor I]
In short: (§1)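 Thermal stability values are relative to control samples and come from duplicates. They are expressed as log2 fold changes. For measurement, K562 cells (2×10^6 cells/mL) received 10 μM compound for 30 min, and aliquots were heated for 3 min over 48°C-58°C, pooled, and extracted at 4°C in PBS with 0.5% NP-40. Soluble protein, the supernatant after 21,000xg for 90 min, was quantified by TMTpro 16plex LC-MS/MS with equalised channel sums.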

[2] = compound: C=CC(=O)N1CCC[C@@H](n2nc(-c3ccc(Oc4ccccc4)cc3)c3c(N)ncnc32)C1 [ibrutinib]
In short: as §1

[3] = compound: CC(=O)c1cnc2ccc(-c3cc(Cl)c(O)c(Cl)c3)nc2c1N[C@H]1CC[C@H](CN(C)C)CC1
In short: as §1

[4] = compound: CC(C)(C)Cn1c(N)nc2ccc(-c3[nH]c(C(C)(C)C)nc3-c3ccc(F)cc3)nc21 [ralimetinib]
In short: as §1

[5] = compound: CC(C)(O)CC(=O)NCCn1ccc2ncnc(Nc3ccc(Oc4cccc(C(F)(F)F)c4)c(Cl)c3)c21
In short: as §1

[6] = compound: CC(C)C1=C2N=C(C=C(N2N=C1)NCC3=CC=CC=C3)NCCCCCCN
In short: as §1

[7] = compound: CC(C)C[C@@H](C=O)NC(=O)[C@H](CC(C)C)NC(=O)[C@H](CC(C)C)NC(=O)OCc1ccccc1
In short: as §1

[8] = compound: CC(C)N(C[C@H]1O[C@@H](n2cnc3c(N)ncnc32)[C@H](O)[C@@H]1O)[C@H]1C[C@@H](CCc2nc3cc(C(C)(C)C)ccc3[nH]2)C1 [pinometostat]
In short: as §1

[9] = compound: CC1=C(C2=C(C=C1)C(=O)C3=CC=CC=C3N2CCCN)C
In short: as §1

[10] = compound: CC1=C(C=C(C=C1)NC(=O)C2=CC(=CC=C2)C(C)(C)C#N)NC3=CC4=C(C=C3)N=CN(C4=O)C
In short: as §1

[11] = compound: CC1=C(C=C(C=C1)NC(=O)C2=CC(=CC=C2)N(C)C)NC(=O)C3=CC=C(C=C3)O
In short: as §1

[12] = compound: CC1=CC=C(C=C1)SC2=C3C=C(SC3=CN=C2)C(=O)N
In short: as §1

[13] = compound: CC1=NC(=CC=C1)C2=C(N=C(N2)C(C)(C)C)C3=CC4=NC=CN=C4C=C3
In short: as §1

[14] = compound: CCCCN(Cc1ccc(C(=O)NO)cc1)C(=O)Nc1ccccc1 [Nexturastat A]
In short: as §1

[15] = compound: CCCS(=O)(=O)Nc1ccc(F)c(C(=O)c2c[nH]c3ncc(-c4ccc(Cl)cc4)cc23)c1F [vemurafenib]
In short: as §1

[16] = compound: CCCS(=O)(=O)Nc1ccc(F)c(C(=O)c2c[nH]c3ncc(Cl)cc23)c1F
In short: as §1

[17] = compound: CCCc1cc(C)[nH]c(=O)c1CNC(=O)c1cc(-c2ccnc(N3CCN(C)CC3)c2)cc2c1cnn2C(C)C
In short: as §1

[18] = compound: CCN(CC)Cc1ccc2cc(COC(=O)Nc3ccc(C(=O)NO)cc3)ccc2c1 [givinostat]
In short: as §1

[19] = compound: CCN(CCCOc1ccc2c(Nc3cc(CC(=O)Nc4cccc(F)c4)[nH]n3)ncnc2c1)CCOP(=O)(O)O [barasertib]
In short: as §1

[20] = compound: CC1=C(C(CC(=O)N1)C2=CC=C(C=C2)C(F)(F)F)C(=O)NC3=C(C=C4C(=C3)C=NN4)F
In short: as §1

| Target | log2 fold change [1] | log2 fold change [2] | log2 fold change [3] | log2 fold change [4] | log2 fold change [5] | log2 fold change [6] | log2 fold change [7] | log2 fold change [8] | log2 fold change [9] | log2 fold change [10] | log2 fold change [11] | log2 fold change [12] | log2 fold change [13] | log2 fold change [14] | log2 fold change [15] | log2 fold change [16] | log2 fold change [17] | log2 fold change [18] | log2 fold change [19] | log2 fold change [20] |
| --- | --- | --- | --- | --- | --- | --- | --- | --- | --- | --- | --- | --- | --- | --- | --- | --- | --- | --- | --- | --- |
| GMEB1 (UniProt Q9Y692) | inactive: -0.033 | inactive: -0.031 | inactive: -0.021 | inactive: 0.01 | inactive: -0.039 | inactive: -0.044 | inactive: -0.031 | inactive: 0.022 | active: -0.297 | inactive: 0.088 | inactive: 0.041 | inactive: 0.04 | inactive: 0.014 | inactive: -0.041 | inactive: -0.048 | inactive: 0.154 | inactive: 0.047 | inactive: 0.058 | inactive: 0.008 | – |
| GLS (UniProt O94925) | inactive: 0.051 | inactive: -0.096 | inactive: 0.002 | inactive: -0.071 | inactive: -0.14 | inactive: 0.004 | inactive: 0.032 | inactive: -0.037 | inactive: 0.002 | inactive: -0.013 | inactive: -0.072 | inactive: -0.024 | inactive: 0.034 | inactive: -0.065 | inactive: 0.096 | inactive: 0.132 | inactive: 0.062 | inactive: 0.041 | inactive: 0.054 | – |
| GNA12 (UniProt Q03113) | inactive: -0.066 | inactive: -0.118 | inactive: -0.042 | – | inactive: -0.031 | inactive: -0.107 | – | inactive: 0.101 | inactive: 0.147 | inactive: -0.056 | – | inactive: -0.043 | inactive: -0.132 | inactive: -0.255 | inactive: -0.101 | inactive: -0.197 | inactive: -0.267 | inactive: 0.06 | inactive: 0 | inactive: 0.192 |
| GNL1 (UniProt P36915) | inactive: 0.07 | inactive: 0.037 | inactive: 0.046 | inactive: 0.011 | inactive: -0.063 | inactive: -0.03 | inactive: -0.014 | inactive: -0.006 | inactive: -0.086 | inactive: 0.019 | inactive: -0.014 | inactive: 0.032 | inactive: 0.036 | inactive: -0.031 | inactive: -0.01 | inactive: 0.081 | inactive: 0.002 | inactive: -0.033 | inactive: 0.017 | – |
| GOLGA6B (UniProt A6NDN3) | inactive: -0.034 | inactive: 0.013 | – | – | inactive: 0.025 | inactive: 0.165 | – | inactive: -0.137 | – | inactive: -0.035 | – | – | inactive: 0.033 | inactive: -0.099 | active: 0.882 | – | inactive: -0.113 | inactive: 0.002 | inactive: 0.011 | – |
| GON4L (UniProt Q3T8J9) | inactive: 0.07 | inactive: 0.134 | inactive: 0.208 | – | inactive: -0.172 | – | – | inactive: -0.022 | inactive: 0.056 | inactive: -0.009 | – | inactive: -0.104 | inactive: 0.036 | inactive: 0.002 | – | inactive: 0.002 | inactive: -0.381 | – | inactive: -0.083 | inactive: -0.015 |
| GLA (UniProt P06280) | inactive: 0.034 | inactive: 0.026 | inactive: -0.031 | inactive: -0.05 | inactive: -0.052 | inactive: -0.199 | inactive: 0.015 | inactive: 0.02 | inactive: -0.051 | inactive: -0.016 | inactive: 0.027 | inactive: -0.001 | inactive: 0.011 | inactive: 0.005 | inactive: -0.009 | inactive: -0.038 | inactive: -0.039 | inactive: 0.04 | inactive: 0.005 | – |
| GIGYF2 (UniProt Q6Y7W6) | inactive: -0.01 | inactive: -0.039 | active: -0.316 | inactive: -0.041 | inactive: -0.124 | inactive: -0.115 | inactive: 0.01 | inactive: 0.082 | inactive: 0.021 | inactive: -0.075 | inactive: 0.058 | inactive: 0.01 | inactive: 0.044 | inactive: 0.05 | inactive: 0.043 | inactive: 0.048 | inactive: 0.049 | inactive: 0.092 | inactive: 0.093 | – |
| GOLGA8R (UniProt I6L899) | inactive: 0.003 | inactive: 0.04 | inactive: -0.106 | inactive: 0.247 | – | inactive: 0.227 | inactive: 0.177 | inactive: 0.035 | inactive: 0.201 | – | inactive: -0.037 | inactive: 0.041 | inactive: -0.205 | – | inactive: 0.06 | inactive: -0.086 | – | inactive: 0.223 | inactive: 0.048 | – |
| GOLGA7B (UniProt Q2TAP0) | inactive: -0.022 | inactive: -0.004 | inactive: -0.093 | inactive: -0.108 | – | inactive: -0.079 | inactive: 0.075 | inactive: 0.032 | inactive: 0.048 | inactive: -0.017 | inactive: -0.1 | inactive: 0.049 | inactive: -0.061 | – | inactive: -0.058 | inactive: 0.028 | inactive: -0.055 | inactive: -0.028 | inactive: -0.201 | inactive: 0.015 |
